Drawing on paper PMC10721647, this text covers binding for four substances.

Results are given in words; binding and its absence hold for the method and conditions named. Binding seen in cells or lysates may run through a third protein. A yes stands for co-enrichment or nearness to the bait. Other partners may have been found.

The assay has as its target FLAG-BPLF1, viral ubiquitin deconjugase (vDUB) encoded in the N-terminal domain (aa 1-235) of the Epstein-Barr virus large tegument protein BPLF1 (Epstein-Barr virus) (UniProt P03186). The assay can be described thus: affinity purification with mass spectrometry; anti-FLAG immunoprecipitates of cells transfected with FLAG-BPLF1 or FLAG-BPLF1 C61A against FLAG-empty vector, biological duplicates; hits need at least four unique spectral counts; mass spectrometry data previously reported (ref. 43) and reanalysed here.
Consider “eIF4G2, translation initiation complex subunit (from UniProt P78344 1-907)”, for which the binding entry is on record as “binds”.
To “eIF5A, ribosome pause release factor (from UniProt P63241 1-154)” belongs “binds”; to “eIF4G1, translation initiation complex subunit (from UniProt Q04637 1-1599)”, “binds”; to “eIF4E2, translation initiation complex subunit (from UniProt O60573 1-245)”, “binds”.
